From patent EP0047459A2, “Fluorescent reagent and immunofluorescent determination method” (INTERNATIONAL DIAGNOSTIC TECHNOLOGY, INC., priority 1980, dated 1982)
At least one compound was matched to its structure with a doubt left.

Tested on: korrespondierenden Antikörper
Assay: Antigenicity of diphenylhydantoin derivatives (ability to bind the corresponding antibody), relative to DPH
Format: binding
Settings: relative to unmodified DPH = 100

O=C1NC(=O)C(c2ccccc2)(c2ccccc2)N1 [Diphenyl-hydantoin, Diphenylhydantoin]
Antigenität von Diphenylhydantoin (DPH) bezogen auf DPH in %: 100%
